PubChem BioAssay (NCATS)
The inconclusive results got no clear call from the source; some entries with a clear call stand among them for comparison. For some of these results: Potencies beside an inconclusive call are fits to weak or partial responses and may not hold up. The source made the active and inactive calls. Calls follow the shape of the dose curve; as a rule, active = well fitted curve in the direction sought with a large enough effect; inconclusive = small, poorly fitted or top-dose-only effect, or another doubt; inactive = no such curve, though single readings can be large; an effect the other way counts as inactive or inconclusive.

Tests used:
[1] = Quantitative High-Throughput drug screen in 47 multiple myeloma cell lines against the NCATS MIPE library collection: MOLP8_DSMZ cell viability assay (AID 1918977); also: nearly all actives have a fitted effect of over 45% in size; also: potency is read from the fitted curve at half-maximal effect;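 as to viability (% of control): 100% = DMSO-only wells and 0% = media-only wells without cells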
How it was run: (§1)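 Readout: median RLU from CellTiter-Glo after 5 min at room temperature. Preceding step was 48 h drug treatment of 500 cells/well at 37 °C, 5% CO2, with DMSO-only and media-only control wells.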

[2] = Quantitative High-Throughput drug screen in 47 multiple myeloma cell lines against the NCATS MIPE library collection: OCIMY1_PLB cell viability assay (AID 1918979); also: nearly all actives have a fitted effect of over 35% in size; also: potency is read from the fitted curve at half-maximal effect;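 as to viability: 100% = DMSO-only wells and 0% = cell-free media-only wells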
How it was run: as §1

[3] = Quantitative High-Throughput drug screen in 47 multiple myeloma cell lines against the NCATS MIPE library collection: MM1R_ATCC cell viability assay (AID 1918981); also: nearly all actives have a fitted effect of over 35% in size; also: potency is read from the fitted curve at half-maximal effect
How it was run: as §1

[4] = Quantitative High-Throughput drug screen in 47 multiple myeloma cell lines against the NCATS MIPE library collection: LP1_DSMZ cell viability assay (AID 1918982); also: nearly all actives have a fitted effect of over 35% in size; also: potency is read from the fitted curve at half-maximal effect
How it was run: as §1

[5] = Quantitative High-Throughput drug screen in 47 multiple myeloma cell lines against the NCATS MIPE library collection: KMS28PE_JCRB cell viability assay (AID 1918983); also: nearly all actives have a fitted effect of over 35% in size; also: potency is read from the fitted curve at half-maximal effect
How it was run: as §1

[6] = Quantitative High-Throughput drug screen in 47 multiple myeloma cell lines against the NCATS MIPE library collection: L363_DSMZ cell viability assay (AID 1918984); conditions: L363 myeloma viability, CellTiter-Glo ATP luminescence, 48 h; viability (% of control): at 45.8 µM (top of the series); also: potency is read from the fitted curve at half-maximal effect; nearly all actives have a fitted effect of over 40% in size
How it was run: as §1

[7] = Quantitative High-Throughput drug screen in 47 multiple myeloma cell lines against the NCATS MIPE library collection: KMS34_JCRB cell viability assay (AID 1918985); conditions: KMS34 myeloma viability, CellTiter-Glo ATP luminescence, 48 h; viability, percent of control: at 45.8 µM; also: nearly all actives have a fitted effect of over 40% in size; also: potency is read from the fitted curve at half-maximal effect;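 as to viability, percent of control: 100% = DMSO-only wells and 0% = media-only wells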
How it was run: as §1

[8] = Quantitative High-Throughput drug screen in 47 multiple myeloma cell lines against the NCATS MIPE library collection: OCIMY7_PLB cell viability assay (AID 1918987); conditions: OCI-MY7 myeloma viability, CellTiter-Glo ATP, 48 h; viability (% of DMSO): at 45.8 µM unless noted; also: nearly all actives have a fitted effect of over 65% in size; also: potency is read from the fitted curve at half-maximal effect
How it was run: as §1

[9] = Quantitative High-Throughput drug screen in 47 multiple myeloma cell lines against the NCATS MIPE library collection: SKMM1_PLB cell viability assay (AID 1919863); conditions: SKMM1 myeloma viability, CellTiter-Glo ATP, 48 h; viability: active compounds read low; also: nearly all actives have a fitted effect of over 35% in size; also: potency is read from the fitted curve at half-maximal effect
How it was run: as §1

[10] = Quantitative High-Throughput drug screen in 47 multiple myeloma cell lines against the NCATS MIPE library collection: NCIH929_DSMZ cell viability assay (AID 1918978); conditions: NCI-H929 myeloma viability, CellTiter-Glo ATP, 48 h; viability, % of control: at 45.8 µM
How it was run: as §1

[11] = Quantitative High-Throughput drug screen in 47 multiple myeloma cell lines against the NCATS MIPE library collection: OCIMY5_PLB cell viability assay (AID 1918988); conditions: OCI-MY5 myeloma viability, ATP luminescence, 48 h; viability, % of control: at 45.8 µM; also: nearly all actives have a fitted effect of over 65% in size; also: potency is read from the fitted curve at half-maximal effect;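 as to viability, % of control: 100% = DMSO-treated wells and 0% = wells with media alone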
How it was run: as §1

[12] = Quantitative High-Throughput drug screen in 47 multiple myeloma cell lines against the NCATS MIPE library collection: OPM1_PLB cell viability assay (AID 1918989); conditions: CellTiter-Glo, 48 h; viability (% of control): at 45.8 µM; also: nearly all actives have a fitted effect of over 40% in size; also: potency is read from the fitted curve at half-maximal effect;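 as to viability (% of control): 100% = DMSO-only wells and 0% = media-only wells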
How it was run: as §1

[13] = Quantitative High-Throughput drug screen in 47 multiple myeloma cell lines against the NCATS MIPE library collection: U266_ATCC cell viability assay (AID 1919864)
How it was run: as §1

[14] = Quantitative High-Throughput drug screen in 47 multiple myeloma cell lines against the NCATS MIPE library collection: XG6_PLB cell viability assay (AID 1919865); conditions: XG6 myeloma viability, CellTiter-Glo ATP luminescence, 48 h; viability (% of control): at 45.8 µM; also: nearly all actives have a fitted effect of over 40% in size; also: potency is read from the fitted curve at half-maximal effect;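 as to viability (% of control): 100% = DMSO-only wells and 0% = media-only wells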
How it was run: as §1

[15] = Quantitative High-Throughput drug screen in 47 multiple myeloma cell lines against the NCATS MIPE library collection: XG1_PLB cell viability assay (AID 1919866); also: nearly all actives have a fitted effect of over 35% in size; also: potency is read from the fitted curve at half-maximal effect
How it was run: as §1

[16] = Quantitative High-Throughput drug screen in 47 multiple myeloma cell lines against the NCATS MIPE library collection: UTMC2_PLB cell viability assay (AID 1919868); conditions: CellTiter-Glo ATP luminescence, 48 h; viability (% of DMSO control): at 45.8 µM; also: potency is read from the fitted curve at half-maximal effect; nearly all actives have a fitted effect of over 55% in size
How it was run: as §1

[17] = Quantitative High-Throughput drug screen in 47 multiple myeloma cell lines against the NCATS MIPE library collection: PCM6_Riken cell viability assay (AID 1919870); conditions: CellTiter-Glo ATP, 48 h; viability (% of control): at 45.8 µM; also: nearly all actives have a fitted effect of over 30% in size; also: potency is read from the fitted curve at half-maximal effect;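 as to viability (% of control): 100% = DMSO-only wells and 0% = media-only wells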
How it was run: as §1

[18] = Quantitative High-Throughput drug screen in 47 multiple myeloma cell lines against the NCATS MIPE library collection: MM1S_ATCC cell viability assay (AID 1918980); also: potency is read from the fitted curve at half-maximal effect; nearly all actives have a fitted effect of over 45% in size
How it was run: as §1

[19] = Quantitative High-Throughput drug screen in 47 multiple myeloma cell lines against the NCATS MIPE library collection: VP6_DJ cell viability assay (AID 1919867); conditions: ATP luminescence, 48 h; viability (% of DMSO): at 45.8 µM
How it was run: as §1

[20] = Quantitative High-Throughput drug screen in 47 multiple myeloma cell lines against the NCATS MIPE library collection: PE2_PLB cell viability assay (AID 1919869); conditions: PE2_PLB myeloma cells viability, ATP luminescence, 48 h; viability (% of control): at 45.8 µM
How it was run: as §1

c1ccc2c(CCNc3ccc(Nc4ccncc4)cc3)c[nH]c2c1
inactive: Potency [2]
inconclusive: Potency [1] 1.48 µM [cytotoxic, full curve] | Potency [4] 18.7 µM [cytotoxic, partial curve, poor fit] | Potency [7] 23.5 µM [cytotoxic, partial curve, poor fit]
active: Potency [3] 3.32 µM | Potency [5] 18.7 µM | Potency [6] 4.69 µM | Potency [8] 8.33 µM | Potency [9] 29.6 µM

CC(C)(Sc1cc(C(C)(C)C)c(O)c(C(C)(C)C)c1)Sc1cc(C(C)(C)C)c(O)c(C(C)(C)C)c1
inconclusive: Potency [10] 4.69 µM [cytotoxic, full curve] | Potency [6] 37.2 µM [cytotoxic, single point] | Potency [8] 0.0012 µM [rising, full curve, poor fit] | Potency [12] 20.9 µM [cytotoxic, partial curve, poor fit] | Potency [14] 14.8 µM [cytotoxic, partial curve] | Potency [15] 13.2 µM [cytotoxic, partial curve] | Potency [17] 3.32 µM [cytotoxic, full curve, poor fit]
inactive: Potency [1] | Potency [4] | Potency [5] | Potency [7] | Potency [11] | viability [9] 149%
active: Potency [13] 3.32 µM | Potency [16] 5.9 µM

CCCc1cc(C(N)=S)ccn1
inconclusive: Potency [18] 0.0264 µM [rising, full curve, poor fit] | Potency [6] 0.0053 µM [cytotoxic, full curve, poor fit] | Potency [9] 1.87 µM [rising, full curve, poor fit] | Potency [13] 0.0015 µM [rising, full curve, poor fit] | Potency [16] 0.935 µM [rising, full curve, poor fit]
inactive: Potency [1] | Potency [2] | Potency [3] | Potency [5] | Potency [7] | Potency [8] | Potency [11] | Potency [12] | Potency [14] | Potency [15] | Potency [19] | Potency [17]

Cc1ccc(NC(=O)Nc2cc(C(F)(F)F)ccc2F)cc1Nc1ccc2c(c1)NC(=O)C2=Cc1ccc[nH]1
inconclusive: Potency [1] 33.2 µM [cytotoxic, single point] | Potency [18] 33.2 µM [cytotoxic, single point] | Potency [5] 33.2 µM [cytotoxic, single point] | Potency [7] 23.5 µM [cytotoxic, partial curve, poor fit] | Potency [9] 37.2 µM [cytotoxic, single point] | Potency [13] 33.2 µM [cytotoxic, single point]
active: Potency [2] 23.5 µM | Potency [4] 26.4 µM | Potency [16] 8.33 µM

CC(C=CC=C(C)C=CC1=C(C)CCCC1(C)C)=CC=CC=C(C)C=CC=C(C)C=CC1=C(C)CCCC1(C)C
inconclusive: Potency [1] 18.7 µM [cytotoxic, partial curve, poor fit] | Potency [10] 26.4 µM [cytotoxic, partial curve] | Potency [5] 9.35 µM [cytotoxic, partial curve, poor fit] | Potency [7] 23.5 µM [cytotoxic, single point] | Potency [16] 8.33 µM [rising, single point] | Potency [20] 16.6 µM [cytotoxic, partial curve, poor fit]
inactive: Potency [4] | viability [9] 107%
active: Potency [6] 16.6 µM | Potency [15] 16.6 µM

Cc1cc2c(C(C)C)c(O)c(O)c(C=O)c2c(O)c1-c1c(C)cc2c(C(C)C)c(O)c(O)c(C=O)c2c1O
active: Potency [2] 14.8 µM | Potency [18] 16.6 µM | Potency [4] 16.6 µM | Potency [5] 18.7 µM | Potency [11] 14.8 µM
inconclusive: Potency [1] 18.7 µM [cytotoxic, partial curve, poor fit] | Potency [6] 10.5 µM [cytotoxic, single point] | Potency [13] 33.2 µM [cytotoxic, single point]

OC(Cn1cncn1)(Cn1cncn1)c1ccc(F)cc1F
inconclusive: Potency [1] 5.26 µM [cytotoxic, partial curve, poor fit] | Potency [18] 18.7 µM [cytotoxic, single point] | Potency [3] 1.48 µM [cytotoxic, full curve, poor fit] | Potency [6] 13.2 µM [rising, partial curve, poor fit] | Potency [7] 14.8 µM [cytotoxic, partial curve, poor fit] | Potency [8] 0.003 µM [rising, full curve, poor fit] | Potency [9] 14.8 µM [cytotoxic, partial curve, poor fit]
inactive: Potency [2] | Potency [4] | Potency [11] | Potency [19]
